Laboratory results: PMC7933360
Results are given in words; binding and its absence hold for the method and conditions named. In cells and extracts the contact can be indirect. Some binding calls cover weakened binding; strength is not graded here.

Tests used:
[1] = biological target: T1, GCM1, endogenous human (human (endogenous in fetal brain tissue)) (UniProt Q9NP62); test: co-IP; human fetal brain tissue, normal and low-folate NTDs; IP with antibody against GCM1, western blot for β-catenin
T1 sequence: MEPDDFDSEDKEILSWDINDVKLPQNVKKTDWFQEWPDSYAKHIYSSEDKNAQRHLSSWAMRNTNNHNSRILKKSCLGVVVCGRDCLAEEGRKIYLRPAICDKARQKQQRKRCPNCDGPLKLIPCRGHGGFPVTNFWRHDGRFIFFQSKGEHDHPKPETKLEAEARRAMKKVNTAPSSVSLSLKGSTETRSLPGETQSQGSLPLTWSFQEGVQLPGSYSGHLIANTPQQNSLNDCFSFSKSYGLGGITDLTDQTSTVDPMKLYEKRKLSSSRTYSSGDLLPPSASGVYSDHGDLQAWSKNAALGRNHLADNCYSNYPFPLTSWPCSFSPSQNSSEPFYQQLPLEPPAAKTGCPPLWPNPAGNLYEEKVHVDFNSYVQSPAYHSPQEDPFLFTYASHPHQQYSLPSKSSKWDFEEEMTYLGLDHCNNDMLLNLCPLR

[2] = biological target: T2, Gcm1 (glial cell missing 1), endogenous mouse (mouse (endogenous in C57BL/6 mESCs, NE-4C and CD-1 mouse embryos)) (UniProt P70348); test: co-IP; brains and spines of control and NTDs CD-1 mouse embryos (E9.5; low-folate diet and MTX); IP with anti-Gcm1 antibody, western blot for TCF4 and β-catenin
T2 sequence: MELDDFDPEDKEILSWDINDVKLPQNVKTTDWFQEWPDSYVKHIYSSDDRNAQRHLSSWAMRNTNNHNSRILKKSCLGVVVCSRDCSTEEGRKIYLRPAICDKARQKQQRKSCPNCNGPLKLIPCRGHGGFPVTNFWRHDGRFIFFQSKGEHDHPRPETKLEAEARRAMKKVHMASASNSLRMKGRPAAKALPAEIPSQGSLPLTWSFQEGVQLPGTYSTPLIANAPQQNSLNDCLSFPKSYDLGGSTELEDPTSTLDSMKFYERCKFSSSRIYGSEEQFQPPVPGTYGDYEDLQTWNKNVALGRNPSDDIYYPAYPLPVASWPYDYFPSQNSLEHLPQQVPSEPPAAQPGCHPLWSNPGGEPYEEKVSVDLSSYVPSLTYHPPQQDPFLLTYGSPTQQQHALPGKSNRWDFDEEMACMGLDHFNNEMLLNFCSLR

[3] = biological target: T2, Gcm1 (glial cell missing 1), endogenous mouse (mouse (endogenous in C57BL/6 mESCs, NE-4C and CD-1 mouse embryos)); test: co-IP; NE-4C cells, control and folate-deficient; nuclear protein with anti-Gcm1 or anti-TCF4 antibody cross-linked to Protein A/G plus agarose, overnight at 4 °C; western blot
[4] = biological target: T2, Gcm1 (glial cell missing 1), endogenous mouse (mouse (endogenous in C57BL/6 mESCs, NE-4C and CD-1 mouse embryos)); test: co-IP; C57BL/6 mESCs, control and folate-deficient; precleared nuclear protein incubated overnight at 4 °C with anti-Gcm1 or anti-TCF4 antibody cross-linked (disuccinimidyl suberate) to Protein A/G plus agarose; western blot
[5] = biological target: T3, Gcm1 overexpressed from the plasmid pGMLV-Gcm1 (UniProt P70348); test: co-IP; NE-4C cells transfected with pGMLV-Gcm1; IP with anti-Gcm1 antibody, western blot for TCF4 and β-catenin
T3 sequence: T2 sequence

[6] = biological target: T3, Gcm1 overexpressed from the plasmid pGMLV-Gcm1; test: co-IP; C57BL/6 mESCs transfected with pGMLV-Gcm1 (72 h; 0.5, 2 and 4 µg for the TCF4/β-catenin panel); nuclear protein with antibody cross-linked to Protein A/G plus agarose, overnight at 4 °C; western blot
[7] = biological target: T4, T-cell factor (TCF4), endogenous mouse (mouse (endogenous in C57BL/6 mESCs, NE-4C and CD-1 mouse embryos)), Q924A0; test: as above; settings: remark: other sources report otherwise
T4 chain: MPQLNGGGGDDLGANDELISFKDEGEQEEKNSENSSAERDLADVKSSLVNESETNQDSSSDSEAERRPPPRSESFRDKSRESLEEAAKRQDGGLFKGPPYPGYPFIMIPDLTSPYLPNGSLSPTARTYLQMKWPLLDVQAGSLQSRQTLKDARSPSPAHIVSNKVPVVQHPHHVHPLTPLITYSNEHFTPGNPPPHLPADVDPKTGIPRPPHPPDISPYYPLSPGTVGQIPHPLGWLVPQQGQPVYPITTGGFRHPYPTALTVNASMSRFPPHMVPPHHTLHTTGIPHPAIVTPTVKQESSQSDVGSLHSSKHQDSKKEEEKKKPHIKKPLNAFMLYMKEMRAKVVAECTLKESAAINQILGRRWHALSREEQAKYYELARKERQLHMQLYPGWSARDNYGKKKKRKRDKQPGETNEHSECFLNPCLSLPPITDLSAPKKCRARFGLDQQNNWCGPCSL

[8] = biological target: T4, T-cell factor (TCF4), endogenous mouse …; test: co-IP; C57BL/6 mESCs, control and folate-deficient; precleared nuclear protein incubated overnight at 4 °C with anti-Gcm1 or anti-TCF4 antibody cross-linked (disuccinimidyl suberate) to Protein A/G plus agarose; western blot; settings: remark: other sources report otherwise

Measured: binding

β-catenin, endogenous human (from UniProt P35222 1-781)
binds: [1]

β-catenin, endogenous mouse (from UniProt Q02248 1-781)
binds: [2] | [3] | [4] | [5] | [6]

T-cell factor (TCF4), endogenous mouse (from UniProt Q924A0 1-459)
binds: [2] | [3] | [4] | [5] | [6]

B1: β-catenin, endogenous mouse, Q02248 1-781 (protein)
chain: MATQADLMELDMAMEPDRKAAVSHWQQQSYLDSGIHSGATTTAPSLSGKGNPEEEDVDTSQVLYEWEQGFSQSFTQEQVADIDGQYAMTRAQRVRAAMFPETLDEGMQIPSTQFDAAHPTNVQRLAEPSQMLKHAVVNLINYQDDAELATRAIPELTKLLNDEDQVVVNKAAVMVHQLSKKEASRHAIMRSPQMVSAIVRTMQNTNDVETARCTAGTLHNLSHHREGLLAIFKSGGIPALVKMLGSPVDSVLFYAITTLHNLLLHQEGAKMAVRLAGGLQKMVALLNKTNVKFLAITTDCLQILAYGNQESKLIILASGGPQALVNIMRTYTYEKLLWTTSRVLKVLSVCSSNKPAIVEAGGMQALGLHLTDPSQRLVQNCLWTLRNLSDAATKQEGMEGLLGTLVQLLGSDDINVVTCAAGILSNLTCNNYKNKMMVCQVGGIEALVRTVLRAGDREDITEPAICALRHLTSRHQEAEMAQNAVRLHYGLPVVVKLLHPPSHWPLIKATVGLIRNLALCPANHAPLREQGAIPRLVQLLVRAHQDTQRRTSMGGTQQQFVEGVRMEEIVEGCTGALHILARDVHNRIVIRGLNTIPLFVQLLYSPIENIQRVAAGVLCELAQDKEAAEAIEAEGATAPLTELLHSRNEGVATYAAAVLFRMSEDKPQDYKKRLSVELTSSLFRTEPMAWNETADLGLDIGAQGEALGYRQDDPSYRSFHSGGYGQDALGMDPMMEHEMGGHHPGADYPVDGLPDLGHAQDLMDGLPPGDSNQLAWFDTDL
binds: [7] | [8]
